# ChEMBL document CHEMBL4296182, “CO-ADD screening of NIH NCI Diversity Set V”
# Some of the results follow. Potency and affinity values are given separately.
# System: Pseudomonas aeruginosa
# Conditions: Concentration 20 uM; ASSAY_TEST Inhibition of Bacterial Growth; detection method Absorption (OD600); MEDIA CAMHB; plate type 384well; NBS; CORNING #3640; time 18 hr
row,SMILES,Inhibition [%]
1,O=c1nc(C(F)(F)C(F)(F)C(F)(F)F)[nH]o1,4.49
2,c1cnc2c(c1)ccc1ncccc12,13.33
3,N#CC12CNCC1CN=N2 (stereo not given),-9.75
4,Cc1nc(C)c(C(=O)N/N=C/c2ccc(N(CCCl)CCCl)cc2)s1,14.63
5,Cc1ccc(N2C(=O)C(=CN)C(=O)N(c3ccc(C)cc3)C2=O)cc1,22.46
6,CN1CCN(c2nc(N)cc(O)n2)CC1,-0.59
7,CC(C)(C)c1cc(C=C(C#N)C#N)cc(C(C)(C)C)c1O [TYRPHOSTIN A9],10.25
8,FCCN(CCF)c1cccc(Cl)c1,9.25
9,O=C1/C(=C\c2ccccc2)C2OCC=C3CN4CCC56c7ccccc7N1C5C2C3CC46 (stereo not given),25.76
10,O=[N+]([O-])c1cc([As](=O)(O)c2ccc(O)c([N+](=O)[O-])c2)ccc1O,23.48
11,Nc1nc(N)c2cnnn2n1,-10.93
12,O=P(OC1=CCCCC1)(c1ccccc1)c1ccccc1,8.74
13,O=C1N(c2nncs2)CCN1[N+](=O)[O-],7.04
14,CN1C2CCC1[C@@H](COC(=O)c1ccccc1)[C@@H](O)C2 (stereo not given in full),-11.83
15,CCCC(=O)N(C)C1=Nc2ccc(Cl)cc2C(c2ccccc2)=[N+]([O-])C1,12.3
16,Cc1nccc2c1[nH]c1cc(O)ccc12,15.56
17,Cc1ccc2cc3c(ccc4ccccc43)c3c2c1CC3 [3-METHYLCHOLANTHRENE],25.55
18,O=C1CN=C(c2ccc[nH]2)c2cc(Cl)ccc2N1,-0.79
19,C[C@H]1CC[C@H]2NCCN[C@H]2C1,26.77
20,CCc1cc2c(cc1-c1csc(CC(=N)NO)n1)C(C)(C)CCC2(C)C,-14.69
21,O=c1cccc2n1C[C@H]1CNC[C@H]2C1,4.01
22,CCOP(=O)(OCC)/C(C#N)=C/c1ccc(Br)cc1,28.48
23,CS(=O)(=O)O.O=C1CCC2(O)[C@@H]3Cc4ccc(O)c5c4[C@]2(CCN3Cc2ccoc2)C1O5 (stereo not given in full),-12.23
24,c1ccc(C2NCCc3[nH]cnc32)cc1 (stereo not given),-6.54
25,C[C@H]1CC[C@@]2(C)[C@@H](CC[C@@H]3[C@@H]2CC[C@]2(C)[C@@H](O)CC[C@@H]32)C1,5.17

# Shown tab-delimited: entries from further up.
row	SMILES	Inhibition [%]
17	Cc1ccc2cc3c(ccc4ccccc43)c3c2c1CC3 [3-METHYLCHOLANTHRENE]	25.55
18	O=C1CN=C(c2ccc[nH]2)c2cc(Cl)ccc2N1	-0.79
19	C[C@H]1CC[C@H]2NCCN[C@H]2C1	26.77
20	CCc1cc2c(cc1-c1csc(CC(=N)NO)n1)C(C)(C)CCC2(C)C	-14.69

# Next entries:

row,SMILES,Inhibition [%]
1,NN=C1C(Cl)=C(Cl)C(Cl)=C1Cl,-24.45
2,CCN(CC)c1ccc(C=C2C(=O)NC(=S)NC2=O)cc1,-12.94
3,c1cncc(C2Nc3cccc4cccc(c34)N2)c1,-23.18
4,CN1C(=O)CC[C@@]2(C)C1=CC[C@@H]1[C@@H]2CC[C@@]2(C)[C@H]1CC[C@]2(C)O,16.23
5,CN1CCCC1c1ccc(O)nc1 (stereo not given),22.02
6,CN1C2c3ccccc3C3C4c5ccccc5C(C31)C(C2[N+](=O)[O-])N4C (stereo not given),28.89
7,CC(=O)Nc1cc([As](=O)(O)O)ccc1O [ACETARSONE],6.7
8,CC12CCC3C(CCC4Cc5[nH]c6ccccc6c5CC43C)C1CCC2O (stereo not given),17.33
9,CCN1CCc2ccccc2C1,23.03
10,NC=C1C(=O)N(c2ccccc2)C(=O)N(c2ccccc2)C1=O,27.98
11,O=c1cccc2n1C[C@H]1C[C@@H]2CN2CCCC[C@@H]12,2.05
12,CCC(CO)NC(=O)C1C=C2c3cccc4[nH]cc(c34)CC2N(C)C1 (stereo not given),-11.27
13,O=C(Oc1ccccc1)N(c1ccccc1)c1ccccc1,9.65
14,COc1ccc(OC(=O)Nc2ccc([N+](=O)[O-])cc2OC)cc1,14.08
15,Cc1c(CCN)ccc2c1[nH]c1ccccc12,-0.06
16,COc1ccc(CCNC2(C#N)CCCCC2)cc1OC,10.69
17,[Cl-].c1ccc(-c2nn(-c3ccccc3)[n+](-c3ccccc3)n2)cc1 [TETRAZOLIUM RED],16.55
18,O=C(CF)N(O)c1ccc(/C=C/c2ccccc2)cc1,4.77
19,Cc1cc(OCCN2CC2)c2ccccc2n1,13.17
20,O=C(NC(=O)c1c(F)cccc1F)Nc1cc(Cl)c(F)c(Cl)c1F [TEFLUBENZURON],15.11
21,CC1CC(C)OP(=O)(OCCC#N)O1 (stereo not given),10.89
22,COc1ccc2c(c1)NP(=S)(Oc1ccccc1)N2 (stereo not given),-3.1
23,CN(C)P(=O)(N(C)C)N1CC1,29.31
24,O=C1C[C@@H]2OCC=C3C[N+]4([O-])CC[C@]56c7ccccc7N1[C@H]5[C@H]2[C@H]3C[C@@H]64 (stereo not given in full),9.12
25,C1CC2NCCC3NCCC(N1)N32 (stereo not given),27.86
